Measurements reported in PubChem BioAssay AID686938 (Drosophila RNAi Screening Center, 2013).
In all, the deposit lists about 23,000 reagents; shown is a random part of those with a known target gene and a result. In the full data, 75 (0.33%) were called active. 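Raw plate signals without normalisation; calls rest on plate z-scores that were not deposited; ratio present for only 364 wells.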 A number with no mark means an inactive call. The record does not give: the dose of the treatment.

Purpose: 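Looking for CRAC channel components and the factors controlling them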 (primary screen)
System: Drosophila S2R+ cells
Reagents: long dsRNA against Drosophila genes, about 0.25 µg dsRNA per well, roughly 10,000 cells
Duration: 5 days of knock-down before the calcium assay
Conditions: thapsigargin (SERCA pump blocker) to empty calcium stores; entry signal taken 4 min after adding it
Measured: 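Per-well fluo-4 fluorescence in two replicates, unnormalised, measured in resting cells and 4 min after store depletion by the SERCA blocker thapsigargin; ratio of the two present in few wells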
Scale: calcium entry signal: higher = stronger calcium signal after store depletion; entry to resting ratio: higher = more calcium entry relative to resting level; resting calcium signal: higher = higher resting calcium signal
Units: calcium entry signal in fluorescence units; resting calcium signal in fluorescence units
Call rule: 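Hit if the duplicate-averaged plate z-score for entry over resting signal is under −3; wells with weak total dye signal (Fmax z < −2) or more than 5 off-targets removed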
Meaning of the calls: active = strongly reduced calcium entry; inactive = no strong reduction

ATP6AP2 (ATPase H+ transporting accessory protein 2) [DRSC16420]
- calcium entry signal, replicate 1: 3.64e7
- calcium entry signal, replicate 2: 3.87e7
- resting calcium signal, replicate 1: 1.62e7
- resting calcium signal, replicate 2: 1.82e7

CG13039 [DRSC09920]
- calcium entry signal, replicate 1: 4.20e7
- calcium entry signal, replicate 2: 3.25e7
- resting calcium signal, replicate 1: 1.77e7
- resting calcium signal, replicate 2: 1.32e7

CG14417 [DRSC18638]
- calcium entry signal, replicate 1: 3.30e7
- calcium entry signal, replicate 2: 3.00e7
- entry to resting ratio: 2
- resting calcium signal, replicate 1: 1.62e7
- resting calcium signal, replicate 2: 1.31e7

CG11178 [DRSC19396]
- calcium entry signal, replicate 1: 4.04e7
- calcium entry signal, replicate 2: 4.08e7
- resting calcium signal, replicate 1: 1.76e7
- resting calcium signal, replicate 2: 2.04e7

CG17109 [DRSC15172]
- calcium entry signal, replicate 1: 4.53e7
- calcium entry signal, replicate 2: 5.02e7
- resting calcium signal, replicate 1: 2.35e7
- resting calcium signal, replicate 2: 2.10e7

Cpr31A (Cuticular protein 31A) [DRSC02779]
- calcium entry signal, replicate 1: 2.50e7
- calcium entry signal, replicate 2: 3.64e7
- resting calcium signal, replicate 1: 1.25e7
- resting calcium signal, replicate 2: 1.70e7

bru1 (bruno 1) [DRSC01234]
- calcium entry signal, replicate 1: 2.84e7
- calcium entry signal, replicate 2: 2.53e7
- resting calcium signal, replicate 1: 1.84e7
- resting calcium signal, replicate 2: 1.56e7

bru1 (bruno 1) [DRSC01236]
- calcium entry signal, replicate 1: 4.93e7
- calcium entry signal, replicate 2: 5.18e7
- resting calcium signal, replicate 1: 2.46e7
- resting calcium signal, replicate 2: 2.60e7

bru1 (bruno 1) [DRSC01237]
- calcium entry signal, replicate 1: 4.49e7
- calcium entry signal, replicate 2: 4.64e7
- resting calcium signal, replicate 1: 2.23e7
- resting calcium signal, replicate 2: 2.00e7

bru1 (bruno 1) [DRSC01238]
- calcium entry signal, replicate 1: 4.38e7
- calcium entry signal, replicate 2: 4.50e7
- resting calcium signal, replicate 1: 2.11e7
- resting calcium signal, replicate 2: 1.94e7

bru1 (bruno 1) [DRSC03485]
- calcium entry signal, replicate 1: 4.41e7
- resting calcium signal, replicate 1: 2.32e7

CG9922 [DRSC16579]
- calcium entry signal, replicate 1: 3.64e7
- calcium entry signal, replicate 2: 5.77e7
- resting calcium signal, replicate 1: 1.81e7
- resting calcium signal, replicate 2: 5.77e7

2 entries from above, ordered by “calcium entry signal, replicate 2”, ascending:
CG13039 [DRSC09920]
- calcium entry signal, replicate 1: 4.20e7
- calcium entry signal, replicate 2: 3.25e7
- resting calcium signal, replicate 1: 1.77e7
- resting calcium signal, replicate 2: 1.32e7

ATP6AP2 (ATPase H+ transporting accessory protein 2) [DRSC16420]
- calcium entry signal, replicate 1: 3.64e7
- calcium entry signal, replicate 2: 3.87e7
- resting calcium signal, replicate 1: 1.62e7
- resting calcium signal, replicate 2: 1.82e7
